Measured values published in PubChem BioAssay AID1919000 (Molecular Pharmacology Branch, DTP, NCI, 2023).
Where “and” joins values, the source holds several entries; their conditions need not be identical. Equal values may be shown once. The source gives many values for each of these; only a part stands here.

System: 653999-131-R-J2-PDC complex spheroids, growth % test/control
Test: Anticancer human tumor 653999-131-R-J2-PDC patient-derived lung adenocarcinoma cell line growth inhibition [AhR]
Conditions: stronger effect = lower value; active = viability on the fitted dose curve at most 10% of control; inactive = the rest
From the text: Multicellular complex tumor spheroid response to aryl hydrocarbon receptor antagonists in combination with a variety of drugs and investigational agents in selected tumor cell lines
The current study was undertaken to assess response to aryl hydrocarbon receptor antagonists in combination with standard-of-care drugs and investigational agents in solid tumor complex spheroid models. Complex spheroids include a stromal component modeled by human endothelial cells (HUVEC) and fibroblasts modeled by human mesenchymal stem cells (MSCs). The concentration ranges selected for each drug and investigational agent were based upon clinically achievable concentrations if the clinical Cmax of the agent was known.
Compounds. The drugs and investigational agents: BAY 2416964 (NSC825713), GNF351 (NSC835774), CH-223191 (NSC835775), CPI-455 (NSC825282), aza-TdCyd (NSC777586), decitabine (NSC127716), belinostat (NSC758774), entinostat (NSC756642), pevonedistat (NSC761192), tazemetostat (NSC777109), talazoparib (NSC765396), olaparib (NSC753686), selinexor (NSC780203), nedisertib (M3814, NSC802822), bortezomib (NSC756655), venetoclax (NSC766270), doxorubicin (NSC123127), elimusertib (BAY189344, NSC800525), ceralasertib (AZD6738, NSC777638), TAK-243 (NSC785004), alisertib (NSC759677), etoposide (NSC141540), topotecan (NSC609699), eribulin (NSC707389), gemcitabine (NSC613327), carboplatin (NSC241240), cisplatin (NSC119875), and SN-38 (NSC673596) were obtained from the National Cancer Institute (NCI) Developmental Therapeutics Program Chemical Repository (32). The FDA-approved anticancer drug set is available from the Developmental Therapeutics Program at https://dtp.cancer.gov/organization/dscb/obtaining/available plates.htm. […] The stock solutions were prepared in dimethyl sulfoxide (DMSO, Sigma-Aldrich, St. Louis, MO, cat. D2650), except for the platinum compounds which were prepared in saline (Quality Biological, Gaithersburg, MD, cat. 114-055-101), at 800-fold the tested concentration and stored at -70 degrees C prior to their use. All drugs and investigational agents were tested over a range starting from a high concentration at or near the clinical Cmax and decreasing in half-log increments. If the clinical Cmax for an agent had not been determined, the highest concentration tested was 10 microM (Table 1).
Cell Culture. All cells were maintained in an incubator at 37 degrees C and 5% CO2 with 95% humidity. The PDC lines were cultured according to standard operating procedures established by the NCI PDMR (https://pdmr.cancer.gov). Briefly, all PDCs were thawed and cultured in Matrigel-coated flasks prepared with a working solution of 1X Ham's F-12 nutrient mix, without supplementation (Invitrogen, Waltham, MA, cat. 11765054), 100 U/mL penicillin-streptomycin (Invitrogen, cat. 15140122), and 2.5% Matrigel (Corning Inc., Corning, NY, cat. 354248) for the first three passages. All PDCs were cultured in complete DMEM/F-12 media containing advanced DMEM/F-12 (Invitrogen, cat. 12634028), 4.9% defined fetal bovine serum, heat inactivated (HyClone Laboratories Inc., Logan, UT, cat. SH30070.03HI), 389 ng/mL hydrocortisone (Sigma-Aldrich, cat. H4001), 9.7 ng/mL human EGF recombinant protein (Invitrogen, cat. PHG0313), 23.4 microg/mL adenine (Sigma-Aldrich, cat. A2786), 97.3 U/mL penicillin-streptomycin (Invitrogen, cat. 15140122), 1.9 mM L-glutamine (Invitrogen, cat. 25030081), and 9.7 microM Y-27632 dihydrochloride (Tocris Bioscience, Bristol, United Kingdom, cat. 1254). The PDCs were cultured in complete DMEM/F12 media without 10 microM Y-27632 dihydrochloride for at least two passages prior to the screen. The established cell lines NCI-H1341 and […] were cultured in DMEM/F-12, HEPES (Invitrogen, cat. 11330032), 5% defined fetal bovine serum (HyClone Laboratories Inc., cat. SH30070.03), ITS premix universal culture supplement [insulin (5 microg/mL), transferrin (5 microg/mL), and selenious acid (5 ng/mL)] […]

Measured: viability, T/C
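Also: spheroids exposed to agents for seven days.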

Cc1cncc(-c2nc(NCCc3c[nH]c4ccccc34)c3ncn(C(C)C)c3n2)c1
inactive: compound 0.1 µM 96.8% [middle of 4 runs] | compound 0.316 µM 109% [middle of 4 runs] | compound 1 µM 113% [middle of 4 runs] | compound 3.16 µM 98.6% and 129% and 98.5% | compound 10 µM 41.7% and 57.6% and 51.4%

Cc1ccccc1N=Nc1ccc(NC(=O)c2ccnn2C)c(C)c1
inactive: compound 0.1 µM 106% [middle of 4 runs] | compound 1 µM 86.6% and 98.6% and 91.2% | compound 3.16 µM 96% [middle of 4 runs] | compound 10 µM 106% [middle of 4 runs]

CC(CO)NC(=O)c1cc(-c2ccc(Cl)cc2)nn(-c2cnn(C)c2)c1=O (centres undefined)
inactive: compound 0.1 µM 90.3% and 85.5% and 93.7% | compound 0.316 µM 94.4% [middle of 4 runs] | compound 1 µM 97.1% [middle of 4 runs] | compound 3.16 µM 89.4% [middle of 5 runs] | compound 10 µM 90.6% [middle of 5 runs]
